# Measurements reported in the supplement of paper PMC10689618.
# Some of the results follow. Many values rest on one well or one pass, so single values are uncertain.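 Labelled rat cortical synaptosomes were engulfed by primary human fetal astrocytes. Engulfment equaled a red/green ratio, corrected for calcein live-cell signal and normalized to the plate median. Compounds were toxic when calcein dropped over 30%, and reduced phagocytosis when below 70% of the median above 5 µM.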
# Legend:
# Human fetal astrocytes [1] = test: loss of total cells relative to no-compound high-control median (toxicity); higher = more toxic (fewer cells); conditions: 24 h
# Human fetal astrocytes [2] = test: synaptosome phagocytosis (pHrodo/calcein intensity ratio) relative to plate median of data wells; higher = more phagocytosis; conditions: 24 h
Structure (SMILES),loss of total cells (Human fetal astrocytes [1]; 1.39 µM),loss of total cells (Human fetal astrocytes [1]; 2.78 µM),loss of total cells (Human fetal astrocytes [1]; 5.56 µM),loss of total cells (Human fetal astrocytes [1]; 11.11 µM),loss of total cells (Human fetal astrocytes [1]; 22.22 µM),synaptosome phagocytosis (Human fetal astrocytes [2]; 1.39 µM),synaptosome phagocytosis (Human fetal astrocytes [2]; 2.78 µM),synaptosome phagocytosis (Human fetal astrocytes [2]; 5.56 µM),synaptosome phagocytosis (Human fetal astrocytes [2]; 11.11 µM),synaptosome phagocytosis (Human fetal astrocytes [2]; 22.22 µM)
COc1cc([C@@H]2c3cc4c(cc3[C@@H](O[C@@H]3O[C@@H]5CO[C@@H](C)O[C@H]5[C@H](O)[C@H]3O)[C@H]3COC(=O)[C@H]23)OCO4)cc(OC)c1O,3.3%,-1%,6.3%,10.7%,1.5%,95.2%,99.1%,108%,81.2%,94.3%
COc1cc2c3cc1Oc1c(OC)c(OC)cc4c1[C@@H](Cc1ccc(O)c(c1)Oc1ccc(cc1)C[C@@H]3N(C)CC2)N(C)CC4,6.1%,18.4%,18.8%,7.9%,22%,94.4%,75.6%,72.8%,87.2%,99.1%
CO/N=C1\CN(c2nc3c(cc2F)c(=O)c(C(=O)O)cn3C2CC2)CC1CN (stereo not given),-15.8%,-17.4%,-17.7%,-38.3%,15.9%,97.3%,106%,89.5%,113%,108%
CCOC(=O)[C@H](CCc1ccccc1)N[C@@H](C)C(=O)N1[C@H](C(=O)O)C[C@@H]2CCC[C@@H]21,-25%,-21.4%,4.3%,-1%,-1.6%,88.4%,94.6%,96.1%,88.8%,112%
CC(C)=CC1C(C(=O)O)C1(C)C (stereo not given),-18%,-0.4%,2.9%,0.7%,13.3%,124%,110%,80.3%,114%,92.7%
COc1ccc(C(=O)c2ccccc2)c(O)c1O,-15.6%,6.6%,35.9%,16.8%,40.4%,81.1%,73.7%,143%,98.2%,125%
C[C@@H]1C[C@H]2[C@@H]3C[C@H](F)C4=CC(=O)C=C[C@]4(C)[C@@]3(F)[C@@H](O)C[C@]2(C)[C@@]1(O)C(=O)CO,-10.8%,-19.2%,0.9%,-8.6%,-8.5%,138%,106%,94.7%,123%,115%
C=C(C)CCCC(C)CCOC(C)=O (stereo not given),-28.7%,-1.1%,11%,5.4%,13.3%,104%,123%,100%,97.2%,117%
O=C(O)c1cc(/N=N/c2ccc(S(=O)(=O)Nc3ccccn3)cc2)ccc1O,2.7%,8.5%,-7.7%,-1.4%,-10.6%,103%,97.1%,113%,103%,96.7%
O=C(O)CCC(=O)Nc1ccc(S(=O)(=O)Nc2nccs2)cc1,0.8%,-0.9%,2.1%,-5.5%,16.4%,82.8%,119%,114%,113%,126%
CC(C(=O)O)c1ccc(C(=O)c2cccs2)cc1 (stereo not given),-22.4%,-9.5%,4.5%,0%,3.4%,69.8%,104%,96.1%,104%,112%
COc1ccc2c(c1)OCC(Cc1ccc(O)c(OC)c1)C2=O (stereo not given),-3.3%,-3.3%,30.5%,25.8%,35.9%,146%,84.7%,155%,54%,156%
NCCCCCC(=O)O [6-Aminohexanoic acid],2.5%,26.5%,-5.1%,-16.4%,6.2%,109%,59.2%,104%,112%,87.4%
c1ccc2c(Cc3c[nH]c4ccccc34)c[nH]c2c1,-13.1%,-1.8%,-2.9%,4.1%,11.9%,117%,107%,120%,106%,93.4%
OCc1cccnc1,-21.8%,-11.9%,16.1%,31.8%,10.3%,131%,105%,142%,159%,118%
C1N2CN3CN1CN(C2)C3,-8%,-4.4%,-5.6%,-1.4%,-20.4%,106%,96.6%,86%,102%,81.3%
Cc1cc(C)cc(OCC2CNC(=O)O2)c1 (stereo not given),-5.8%,-5.8%,-0.9%,16.4%,4.5%,110%,109%,90.1%,101%,111%
CC1=C(CCC(=O)O)c2cc3nc(cc4[nH]c(cc5[nH]c(cc1n2)c(C)c5C(C)O)c(C)c4C(C)O)C(C)=C3CCC(=O)O (stereo not given),-0.4%,14%,25.2%,13.5%,9.3%,149%,125%,128%,102%,104%
CCn1cc(C(=O)O)c(=O)c2cc(F)c(N3CCN(C)CC3)cc21,-45.2%,7.1%,-6.8%,23.9%,3.4%,58.3%,97.7%,123%,97.6%,110%
NC[C@H]1O[C@H](O[C@H]2[C@H](O)[C@@H](O[C@H]3O[C@H](CO)[C@@H](O)[C@H](N)[C@H]3O)[C@H](N)C[C@@H]2N)[C@H](N)[C@@H](O)[C@@H]1O,-16.3%,-22%,-13.2%,0.9%,-32.5%,96.7%,122%,90.4%,121%,72.3%
CCOC(=O)c1ccc(N)cc1,-10.8%,11.3%,5.7%,-12.5%,-15.3%,117%,105%,93.9%,102%,87.1%

# In the list so far, these contain fluorine:
Structure (SMILES),loss of total cells (Human fetal astrocytes [1]; 1.39 µM),loss of total cells (Human fetal astrocytes [1]; 2.78 µM),loss of total cells (Human fetal astrocytes [1]; 5.56 µM),loss of total cells (Human fetal astrocytes [1]; 11.11 µM),loss of total cells (Human fetal astrocytes [1]; 22.22 µM),synaptosome phagocytosis (Human fetal astrocytes [2]; 1.39 µM),synaptosome phagocytosis (Human fetal astrocytes [2]; 2.78 µM),synaptosome phagocytosis (Human fetal astrocytes [2]; 5.56 µM),synaptosome phagocytosis (Human fetal astrocytes [2]; 11.11 µM),synaptosome phagocytosis (Human fetal astrocytes [2]; 22.22 µM)
CO/N=C1\CN(c2nc3c(cc2F)c(=O)c(C(=O)O)cn3C2CC2)CC1CN (stereo not given),-15.8%,-17.4%,-17.7%,-38.3%,15.9%,97.3%,106%,89.5%,113%,108%
C[C@@H]1C[C@H]2[C@@H]3C[C@H](F)C4=CC(=O)C=C[C@]4(C)[C@@]3(F)[C@@H](O)C[C@]2(C)[C@@]1(O)C(=O)CO,-10.8%,-19.2%,0.9%,-8.6%,-8.5%,138%,106%,94.7%,123%,115%
CCn1cc(C(=O)O)c(=O)c2cc(F)c(N3CCN(C)CC3)cc21,-45.2%,7.1%,-6.8%,23.9%,3.4%,58.3%,97.7%,123%,97.6%,110%
